The other results are listed elsewhere or left out.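 Rule for the calls: active = dose-dependent thermal stabilisation significant by F-test of dose-response against flat model at 10% FDR; inactive = not significant.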

Amino acid sequences for entries named in this document (tags omitted). A change or cut given only in a name is not applied to a line headed by its entry.
UniProt Q53H47: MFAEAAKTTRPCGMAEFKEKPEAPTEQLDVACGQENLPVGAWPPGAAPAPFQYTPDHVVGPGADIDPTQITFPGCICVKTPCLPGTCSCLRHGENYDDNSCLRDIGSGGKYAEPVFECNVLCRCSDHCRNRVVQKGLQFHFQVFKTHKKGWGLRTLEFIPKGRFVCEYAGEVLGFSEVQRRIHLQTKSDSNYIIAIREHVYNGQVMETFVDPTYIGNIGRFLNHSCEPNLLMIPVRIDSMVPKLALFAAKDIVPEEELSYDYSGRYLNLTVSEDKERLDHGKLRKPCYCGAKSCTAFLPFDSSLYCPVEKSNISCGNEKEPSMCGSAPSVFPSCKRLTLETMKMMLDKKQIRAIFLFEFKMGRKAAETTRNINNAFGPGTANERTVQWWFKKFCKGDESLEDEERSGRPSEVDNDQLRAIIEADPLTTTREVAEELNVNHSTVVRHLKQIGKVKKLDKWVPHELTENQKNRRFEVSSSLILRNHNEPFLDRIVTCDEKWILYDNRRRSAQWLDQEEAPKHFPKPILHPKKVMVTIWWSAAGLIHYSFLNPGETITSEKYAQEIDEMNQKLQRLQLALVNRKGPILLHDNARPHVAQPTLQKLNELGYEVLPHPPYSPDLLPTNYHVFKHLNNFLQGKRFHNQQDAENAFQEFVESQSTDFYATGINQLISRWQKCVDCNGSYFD
UniProt O43566: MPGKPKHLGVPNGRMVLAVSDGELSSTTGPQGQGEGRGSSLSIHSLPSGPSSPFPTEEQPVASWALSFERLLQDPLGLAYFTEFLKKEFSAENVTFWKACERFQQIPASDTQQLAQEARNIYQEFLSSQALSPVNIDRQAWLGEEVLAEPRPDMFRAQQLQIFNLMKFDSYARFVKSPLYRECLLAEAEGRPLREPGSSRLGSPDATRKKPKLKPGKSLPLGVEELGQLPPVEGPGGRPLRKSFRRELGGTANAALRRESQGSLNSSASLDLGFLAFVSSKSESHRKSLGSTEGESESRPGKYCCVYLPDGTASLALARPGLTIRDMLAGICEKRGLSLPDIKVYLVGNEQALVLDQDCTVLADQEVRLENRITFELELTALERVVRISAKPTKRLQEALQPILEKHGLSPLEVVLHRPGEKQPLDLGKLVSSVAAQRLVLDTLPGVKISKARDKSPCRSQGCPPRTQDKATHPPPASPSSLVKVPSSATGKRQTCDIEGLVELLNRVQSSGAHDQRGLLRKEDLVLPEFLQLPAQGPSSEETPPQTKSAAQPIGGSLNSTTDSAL
UniProt Q96FV2: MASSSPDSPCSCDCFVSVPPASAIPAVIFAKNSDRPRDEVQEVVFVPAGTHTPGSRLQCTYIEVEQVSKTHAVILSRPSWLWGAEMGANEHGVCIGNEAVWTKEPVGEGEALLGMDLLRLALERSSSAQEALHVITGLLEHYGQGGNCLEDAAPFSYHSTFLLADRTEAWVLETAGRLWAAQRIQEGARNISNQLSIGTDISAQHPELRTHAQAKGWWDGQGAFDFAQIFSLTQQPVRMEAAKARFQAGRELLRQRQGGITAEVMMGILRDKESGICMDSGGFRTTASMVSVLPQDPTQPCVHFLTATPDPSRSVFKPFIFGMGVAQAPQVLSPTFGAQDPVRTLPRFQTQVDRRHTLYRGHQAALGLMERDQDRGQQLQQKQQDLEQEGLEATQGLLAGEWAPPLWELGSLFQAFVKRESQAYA
UniProt Q9NQC3: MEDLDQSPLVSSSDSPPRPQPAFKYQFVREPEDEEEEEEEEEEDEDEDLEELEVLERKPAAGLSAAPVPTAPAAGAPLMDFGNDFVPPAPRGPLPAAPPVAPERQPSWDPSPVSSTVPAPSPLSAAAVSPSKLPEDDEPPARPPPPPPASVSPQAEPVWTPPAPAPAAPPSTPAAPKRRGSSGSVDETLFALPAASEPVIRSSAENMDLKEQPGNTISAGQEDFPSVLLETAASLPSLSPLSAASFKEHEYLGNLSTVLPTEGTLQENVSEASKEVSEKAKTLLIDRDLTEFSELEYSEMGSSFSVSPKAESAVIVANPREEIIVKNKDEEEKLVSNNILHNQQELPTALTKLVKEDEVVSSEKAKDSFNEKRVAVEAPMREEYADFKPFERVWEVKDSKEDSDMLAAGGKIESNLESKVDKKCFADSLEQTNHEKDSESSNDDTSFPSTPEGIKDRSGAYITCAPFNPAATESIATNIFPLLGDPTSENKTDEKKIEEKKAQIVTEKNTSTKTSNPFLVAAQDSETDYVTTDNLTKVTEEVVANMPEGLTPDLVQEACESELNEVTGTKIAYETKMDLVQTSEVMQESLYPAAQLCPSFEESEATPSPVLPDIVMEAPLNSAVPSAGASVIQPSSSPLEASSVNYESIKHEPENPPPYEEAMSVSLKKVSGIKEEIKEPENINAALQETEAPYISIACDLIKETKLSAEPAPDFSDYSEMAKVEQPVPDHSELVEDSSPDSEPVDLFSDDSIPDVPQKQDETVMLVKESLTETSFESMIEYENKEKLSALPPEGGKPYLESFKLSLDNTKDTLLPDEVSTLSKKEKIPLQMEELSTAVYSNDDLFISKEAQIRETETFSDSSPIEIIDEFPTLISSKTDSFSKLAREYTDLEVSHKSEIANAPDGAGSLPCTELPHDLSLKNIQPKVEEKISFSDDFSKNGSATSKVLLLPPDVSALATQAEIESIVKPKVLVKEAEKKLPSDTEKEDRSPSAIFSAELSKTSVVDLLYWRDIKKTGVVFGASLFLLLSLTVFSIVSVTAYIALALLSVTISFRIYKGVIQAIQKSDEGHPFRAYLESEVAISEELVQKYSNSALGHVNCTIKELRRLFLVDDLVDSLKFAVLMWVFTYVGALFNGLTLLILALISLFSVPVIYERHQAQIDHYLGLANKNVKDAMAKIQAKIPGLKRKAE
UniProt Q6ZNA4: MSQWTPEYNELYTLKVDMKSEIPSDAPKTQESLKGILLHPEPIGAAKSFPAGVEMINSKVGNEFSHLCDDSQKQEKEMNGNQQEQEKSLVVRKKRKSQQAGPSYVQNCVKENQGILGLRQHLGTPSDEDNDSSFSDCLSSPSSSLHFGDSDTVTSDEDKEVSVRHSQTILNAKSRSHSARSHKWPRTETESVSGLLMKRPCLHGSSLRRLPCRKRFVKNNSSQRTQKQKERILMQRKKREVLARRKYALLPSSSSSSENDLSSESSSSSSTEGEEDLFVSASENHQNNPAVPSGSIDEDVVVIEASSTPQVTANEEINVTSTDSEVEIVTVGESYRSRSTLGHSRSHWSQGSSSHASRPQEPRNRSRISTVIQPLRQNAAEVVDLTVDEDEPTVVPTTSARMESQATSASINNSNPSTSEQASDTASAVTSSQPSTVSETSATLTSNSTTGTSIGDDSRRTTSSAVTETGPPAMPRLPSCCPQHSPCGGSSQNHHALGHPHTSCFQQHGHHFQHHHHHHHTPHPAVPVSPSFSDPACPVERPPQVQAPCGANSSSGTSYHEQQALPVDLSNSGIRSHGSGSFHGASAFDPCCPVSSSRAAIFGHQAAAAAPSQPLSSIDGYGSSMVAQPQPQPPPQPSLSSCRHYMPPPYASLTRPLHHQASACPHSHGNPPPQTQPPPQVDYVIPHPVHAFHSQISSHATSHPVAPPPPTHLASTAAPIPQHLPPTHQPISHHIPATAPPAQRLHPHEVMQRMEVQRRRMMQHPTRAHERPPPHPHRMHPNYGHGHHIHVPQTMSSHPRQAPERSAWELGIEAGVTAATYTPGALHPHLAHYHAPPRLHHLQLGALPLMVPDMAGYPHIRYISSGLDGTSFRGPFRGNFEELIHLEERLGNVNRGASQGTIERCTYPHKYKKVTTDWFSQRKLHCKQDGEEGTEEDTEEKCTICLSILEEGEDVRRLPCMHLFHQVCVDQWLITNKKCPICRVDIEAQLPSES
UniProt O43665: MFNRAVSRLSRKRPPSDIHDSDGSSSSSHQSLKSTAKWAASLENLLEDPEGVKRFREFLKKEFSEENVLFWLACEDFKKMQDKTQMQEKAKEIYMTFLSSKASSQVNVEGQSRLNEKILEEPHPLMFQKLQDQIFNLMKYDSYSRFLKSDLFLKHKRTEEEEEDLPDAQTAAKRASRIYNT
UniProt P78317: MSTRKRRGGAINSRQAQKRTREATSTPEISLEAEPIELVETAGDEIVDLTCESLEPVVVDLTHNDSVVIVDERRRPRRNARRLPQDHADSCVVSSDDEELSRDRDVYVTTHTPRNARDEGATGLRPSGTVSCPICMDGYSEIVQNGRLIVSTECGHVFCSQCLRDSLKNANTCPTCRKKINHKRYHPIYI
UniProt P23443: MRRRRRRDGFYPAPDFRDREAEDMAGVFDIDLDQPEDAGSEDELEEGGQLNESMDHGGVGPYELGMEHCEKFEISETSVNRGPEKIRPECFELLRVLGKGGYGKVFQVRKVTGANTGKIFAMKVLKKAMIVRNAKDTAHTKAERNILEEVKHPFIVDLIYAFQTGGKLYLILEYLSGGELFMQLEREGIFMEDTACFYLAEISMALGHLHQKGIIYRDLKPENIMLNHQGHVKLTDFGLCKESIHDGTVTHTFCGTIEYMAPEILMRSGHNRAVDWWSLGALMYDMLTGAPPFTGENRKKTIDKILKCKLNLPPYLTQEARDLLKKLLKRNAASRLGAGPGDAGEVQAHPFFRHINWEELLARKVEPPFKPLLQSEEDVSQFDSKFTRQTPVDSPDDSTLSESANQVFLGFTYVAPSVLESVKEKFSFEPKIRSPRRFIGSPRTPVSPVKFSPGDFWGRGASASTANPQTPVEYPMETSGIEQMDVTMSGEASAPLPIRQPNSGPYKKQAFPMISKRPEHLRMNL
UniProt P23246: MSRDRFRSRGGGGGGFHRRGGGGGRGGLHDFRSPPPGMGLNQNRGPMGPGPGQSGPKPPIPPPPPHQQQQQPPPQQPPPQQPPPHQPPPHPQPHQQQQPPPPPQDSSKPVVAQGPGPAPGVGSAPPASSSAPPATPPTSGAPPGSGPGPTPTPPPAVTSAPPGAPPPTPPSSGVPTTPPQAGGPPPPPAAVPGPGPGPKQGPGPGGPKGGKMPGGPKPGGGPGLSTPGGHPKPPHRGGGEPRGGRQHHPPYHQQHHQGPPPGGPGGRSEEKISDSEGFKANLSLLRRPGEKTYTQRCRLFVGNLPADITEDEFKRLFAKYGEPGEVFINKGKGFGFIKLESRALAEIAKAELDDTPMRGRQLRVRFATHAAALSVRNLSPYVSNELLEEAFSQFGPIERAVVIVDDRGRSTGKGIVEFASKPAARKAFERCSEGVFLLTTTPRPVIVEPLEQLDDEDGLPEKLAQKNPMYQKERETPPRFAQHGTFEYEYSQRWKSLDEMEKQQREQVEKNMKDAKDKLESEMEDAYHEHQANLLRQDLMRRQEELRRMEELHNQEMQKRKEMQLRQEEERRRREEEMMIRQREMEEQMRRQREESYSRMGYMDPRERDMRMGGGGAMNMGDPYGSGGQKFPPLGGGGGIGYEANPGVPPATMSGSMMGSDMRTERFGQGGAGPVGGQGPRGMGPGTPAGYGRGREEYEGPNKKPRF
UniProt Q9BQF6: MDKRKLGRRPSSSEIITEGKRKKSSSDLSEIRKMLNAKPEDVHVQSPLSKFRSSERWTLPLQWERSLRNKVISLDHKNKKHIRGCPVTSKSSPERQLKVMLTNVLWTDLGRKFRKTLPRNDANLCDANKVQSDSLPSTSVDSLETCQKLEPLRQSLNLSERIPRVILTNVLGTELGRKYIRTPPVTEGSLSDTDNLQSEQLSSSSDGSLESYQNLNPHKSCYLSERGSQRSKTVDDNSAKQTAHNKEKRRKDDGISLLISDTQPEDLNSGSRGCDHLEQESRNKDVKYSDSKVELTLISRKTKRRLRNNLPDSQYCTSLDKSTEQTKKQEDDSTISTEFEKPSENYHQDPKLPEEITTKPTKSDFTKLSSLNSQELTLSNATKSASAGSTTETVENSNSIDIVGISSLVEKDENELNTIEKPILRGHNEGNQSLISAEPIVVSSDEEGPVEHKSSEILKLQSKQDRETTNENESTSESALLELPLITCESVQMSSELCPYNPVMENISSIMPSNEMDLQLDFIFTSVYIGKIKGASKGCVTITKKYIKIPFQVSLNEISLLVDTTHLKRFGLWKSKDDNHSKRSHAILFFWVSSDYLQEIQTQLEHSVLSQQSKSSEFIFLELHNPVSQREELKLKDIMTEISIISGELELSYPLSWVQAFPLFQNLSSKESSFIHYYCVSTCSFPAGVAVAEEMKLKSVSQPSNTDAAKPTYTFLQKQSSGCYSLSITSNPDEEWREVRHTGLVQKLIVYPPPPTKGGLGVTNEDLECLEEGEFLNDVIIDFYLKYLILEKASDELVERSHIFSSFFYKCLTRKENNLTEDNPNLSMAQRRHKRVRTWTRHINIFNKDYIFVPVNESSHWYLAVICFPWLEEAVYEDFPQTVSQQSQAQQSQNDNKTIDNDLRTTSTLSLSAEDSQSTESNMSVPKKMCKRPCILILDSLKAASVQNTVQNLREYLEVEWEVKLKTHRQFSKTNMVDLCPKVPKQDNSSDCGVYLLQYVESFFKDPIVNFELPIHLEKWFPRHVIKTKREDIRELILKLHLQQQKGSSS

Compound in the experiment: Nc1nc2c(ncn2[C@@H]2O[C@H](COP(=O)(O)OP(=O)(O)OP(=O)(O)O)[C@@H](O)[C@H]2O)c(=O)[nH]1
Briefly: dose-dependent thermal stabilisation call (2D-TPP, DLPTP, 10% FDR) (binary (1 = stabilised)); higher = stabilised by the compound. Conditions: system: Jurkat gel-filtered lysate; concentration range 1-500 µM.
For the target SH3BP5 (UniProt O60239), the “dose-dependent thermal stabilisation call” value was inactive: 0.

For RPL22 (UniProt P35268), the “dose-dependent thermal stabilisation call” value was inactive: 0.

For SASS6 (UniProt Q6UVJ0), the “dose-dependent thermal stabilisation call” value was inactive: 0.

In the case of RRAGD (UniProt Q9NQL2), the “dose-dependent thermal stabilisation call” value is inactive: 0.

Turning to SETMAR (UniProt Q53H47), the “dose-dependent thermal stabilisation call” value was inactive: 0.

Turning to SEC16A (UniProt O15027), the “dose-dependent thermal stabilisation call” value is inactive: 0.

As for RGS14 (UniProt O43566), the “dose-dependent thermal stabilisation call” value was inactive: 0.

On to RSPRY1 (UniProt Q96DX4), for which the “dose-dependent thermal stabilisation call” value was inactive: 0.

ROCK1 (UniProt Q13464): the “dose-dependent thermal stabilisation call” value is inactive: 0.

In the case of SEPHS1 (UniProt P49903), the “dose-dependent thermal stabilisation call” value was inactive: 0.

Turning to RFX5 (UniProt P48382), the “dose-dependent thermal stabilisation call” value was inactive: 0.

As for RPP14 (UniProt O95059), the “dose-dependent thermal stabilisation call” value was inactive: 0.

As to SCRN2 (UniProt Q96FV2), the “dose-dependent thermal stabilisation call” value was inactive: 0.

As for SGTA (UniProt O43765), the “dose-dependent thermal stabilisation call” value is inactive: 0.

As to RTN4 (UniProt Q9NQC3), the “dose-dependent thermal stabilisation call” value is inactive: 0.

As for RPP40 (UniProt O75818), the “dose-dependent thermal stabilisation call” value was inactive: 0.

As for SEC23A (UniProt Q15436), the “dose-dependent thermal stabilisation call” value was active: 1.

As to RRP15 (UniProt Q9Y3B9), the “dose-dependent thermal stabilisation call” value was inactive: 0.

Turning to RPL10A (UniProt P62906), the “dose-dependent thermal stabilisation call” value was inactive: 0.

As for SCFD1 (UniProt Q8WVM8), the “dose-dependent thermal stabilisation call” value was active: 1.

Consider RNF111 (UniProt Q6ZNA4), for which the “dose-dependent thermal stabilisation call” value was inactive: 0.

For RGS10 (UniProt O43665), the “dose-dependent thermal stabilisation call” value is inactive: 0.

In the case of RPS27L (UniProt Q71UM5), the “dose-dependent thermal stabilisation call” value was inactive: 0.

Take RIPOR2 (UniProt Q9Y4F9): the “dose-dependent thermal stabilisation call” value was inactive: 0.

In the case of SCYL1 (UniProt Q96KG9), the “dose-dependent thermal stabilisation call” value was inactive: 0.

As for RNF4 (UniProt P78317), the “dose-dependent thermal stabilisation call” value was inactive: 0.

Consider SCAF1 (UniProt Q9H7N4), for which the “dose-dependent thermal stabilisation call” value is inactive: 0.

Regarding SFSWAP (UniProt Q12872), the “dose-dependent thermal stabilisation call” value is inactive: 0.

On to SEC23IP (UniProt Q9Y6Y8), for which the “dose-dependent thermal stabilisation call” value was active: 1.

SEC24D (UniProt O94855): the “dose-dependent thermal stabilisation call” value is inactive: 0.

Consider RPS6KB1 (UniProt P23443), for which the “dose-dependent thermal stabilisation call” value is active: 1.

In the case of SFPQ (UniProt P23246), the “dose-dependent thermal stabilisation call” value is inactive: 0.

On to SATB1 (UniProt Q01826), for which the “dose-dependent thermal stabilisation call” value was inactive: 0.

On to SERBP1 (UniProt Q8NC51), for which the “dose-dependent thermal stabilisation call” value was inactive: 0.

Consider SENP7 (UniProt Q9BQF6), for which the “dose-dependent thermal stabilisation call” value was inactive: 0.

As for REPIN1 (UniProt Q9BWE0), the “dose-dependent thermal stabilisation call” value is inactive: 0.
